Measurements reported in PubChem BioAssay AID504444 (National Center for Advancing Translational Sciences (NCATS), 2011).
Screen size: about 360,000 compounds; about 7,500 (2.1%) were called active. Inconclusive results, whose numbers are uncertain, are shown with a selection of clear calls. The call rests on the fitted dose curve; in most records, active means well fitted inhibition curve with a large enough effect; inconclusive means small, poorly fitted or top-dose-only effect, or effect the other way; inactive means flat fitted curve, though single readings scatter. A potency beside an inconclusive call is a rough fit, not a confirmed value. Peptide text beside a SMILES is read from it. * marks the point of attachment. CH2Cl = ClC*

Assay: Nrf2 qHTS screen for inhibitors; further: nearly all actives have a fitted effect of over 60% in size
Details: A549 ARE-Fluc reporter, luciferase luminescence, 18-24 h; series mostly up to 46 µM
Method in brief: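 Reporter: ARE-Fluc in A549. Exposure: 18-24 h, 37 °C, 5% CO2, 5% FBS OPTI-MEM. Readouts: fluorescent cytotoxicity (CellTiter-Fluor), then luminescent Nrf2 signal after BugLite.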
Potency means the concentration at half of the fitted maximal effect.

Compound	Potency
COc1cc(OC)c(OC)cc1CN1CCCC(C(=O)c2ccccc2SC)C1 (stereo not drawn)	inconclusive: 25.9 µM [activator, single point]
CCOC(CNC(=O)C(=O)Nc1cc2c3c(c1)CCC(=O)N3CCC2)OCC	inconclusive: 8.2 µM [falling, partial curve, poor fit]
Cc1ccc(CNC(=O)CSc2ncc(C(=O)Nc3ccccc3)c(=O)n2C)cc1	inconclusive: 3.66 µM [activator, single point]
O=C(Nc1ccc2c(c1)OCCO2)c1cc(F)c(F)cc1Cl	inconclusive: 23.1 µM [activator, partial curve, poor fit]
COCC1CCN(Cc2nc(-c3ccc4c(c3)OCO4)no2)C1 (stereo not drawn)	inconclusive: 10.3 µM [activator, partial curve]
COc1ccc(NS(=O)(=O)c2ccc3nc(-c4ccccc4)[nH]c3c2)cc1	inconclusive: 20.6 µM [activator, partial curve, poor fit]
Cc1nn(CC(=O)NCCN2CCOCC2)c(C)c1[N+](=O)[O-]	inconclusive: 29.1 µM [activator, partial curve, poor fit]
O=C(NCC1CCCN(C(=O)c2cscn2)C1)c1ccccc1Cl (stereo not drawn)	inconclusive: 18.4 µM [activator, single point]
COc1ccc(NC(=O)CCCn2nc(C)c3sc4ccccc4c3c2=O)cc1	inconclusive: 23.1 µM [activator, single point]
CCC(=O)N1CCc2cc(S(=O)(=O)N3CCc4ccccc43)ccc21	inconclusive: 1.3 µM [falling, full curve, poor fit]
Clc1ccccc1Nc1nnc(-c2ccncc2)s1	inconclusive: 2.91 µM [activator, single point]
Cc1cccc(-c2cc(C(=O)N3CCCc4ccccc43)c3ccccc3n2)c1	inconclusive: 13 µM [falling, partial curve, poor fit]
Cc1ccc(S(=O)(=O)N2CCOCC2)cc1C(=O)NCCN1C(=O)S/C(=C\c2ccccc2Cl)C1=O	inconclusive: 18.4 µM [falling, partial curve]
COc1ccc(C(=O)Nc2cccc(-c3nc4ncccc4o3)c2C)cc1OC	active: 18.4 µM
CCCc1nc(NCc2ccccc2)c(C#N)c2c1CCCC2	inconclusive: 13 µM [activator, partial curve]
CCn1c(COc2ccc(C)cc2)nnc1SCc1nc2ccccc2[nH]1	active: 18.4 µM
Cc1ccc(OCC(=O)Nc2ccncc2)c(C)c1	inconclusive: 18.4 µM [falling, partial curve, poor fit]
COc1ccc(C(=O)Nc2cc(Cl)ccc2OC(=O)c2ccc(OC)cc2)cc1	inconclusive: 2.31 µM [falling, partial curve]
O=C(NCCCn1ccnc1)c1cccc(S(=O)(=O)N2CCCCCC2)c1	inconclusive: 18.4 µM [falling, single point]
O=C(CSc1nc2ccccc2[nH]1)Nc1cc(C(F)(F)F)ccc1N1CCOCC1	inconclusive: 32.6 µM [falling, partial curve, poor fit]
O=C(CN1C(=O)NC2(CCCCC2)C1=O)Nc1ccc(F)cc1	inactive

Compound	Potency
Nc1cc(-c2ccccc2)c[nH]c1=O	active: 7.31 µM
COc1ccc(N2CCN(C(=O)CSc3nnc(COc4cccc5cccnc45)o3)CC2)cc1	inconclusive: 32.6 µM [falling, partial curve, poor fit]
Cn1nc(C(C)(C)C)cc1C(=O)NCc1ccc2c(c1)OCO2	active: 1.84 µM
CS(=O)(=O)c1sc2nc(-c3cccs3)cc(-c3ccccc3)c2c1N	inactive
CN1CCN(S(=O)(=O)c2ccc(N(C)Cc3ccc(C(F)(F)F)cc3)c([N+](=O)[O-])c2)CC1	inconclusive: 29.1 µM [falling, single point]
COc1cccc(NC(=O)/C=C/c2ccco2)c1	inconclusive: 6.51 µM [activator, full curve]
Cc1cc(NC(=O)C2CCCN2C(=O)Nc2cccc(Cl)c2)ccc1-n1cnnn1 (stereo not drawn)	active: 16.4 µM
Cc1cc(C)nc(-n2nc(C)c3c2N(Cc2ccccc2)C(=O)CC3c2ccc(Cl)cc2)n1 (stereo not drawn)	inactive
O=C(NCCNC(=O)c1cc(OCC(F)(F)F)ccc1OCC(F)(F)F)Nc1ccccc1	inconclusive: 14.6 µM [falling, partial curve, poor fit]
CCOc1ccc2oc(C(=O)N(Cc3nnc(-c4ccccc4Cl)o3)C3CC3)c(C)c2c1	inconclusive: 23.1 µM [falling, partial curve]
O=C(Nc1ccc2c(c1)C(=O)c1ccccc1-2)c1ccccc1	inconclusive: 8.2 µM [activator, partial curve]
Cc1ccc(C)c(NC(=O)CSc2n[nH]c(-c3ccccn3)n2)c1	inactive
Cc1ccccc1-n1c(=O)n(Cc2ccc(C(=O)O)cc2)c(=O)c2[nH]cnc21	inconclusive: 1.3 µM [activator, full curve]
O=C(CC1C(=O)N(c2ccc(F)cc2)C(=O)N1Cc1ccc2c(c1)OCO2)Nc1ccc(Cl)cc1 (stereo not drawn)	inactive
Cc1cnc(NC(=O)c2cc3c(C)nn(Cc4ccccc4Cl)c3s2)s1	inconclusive: 29.1 µM [falling, single point]
CCN(CC)S(=O)(=O)c1cccc(C(=O)N/N=C/c2cccc(O)c2O)c1	inconclusive: 18.4 µM [falling, partial curve]
O=C(Nc1ccc2c(c1)OCCO2)c1ccc2nccnc2c1	inconclusive: 1.16 µM [activator, full curve]
O=C(Nc1ccc(Br)cc1F)c1ccc2c(c1)N(Cc1ccccc1)C(=O)CS2=O (stereo not drawn)	inconclusive: 29.1 µM [falling, single point]
CC(C)(C)c1nc2ccccc2c2nnc(SCC(=O)Nc3nc4ccccc4s3)n12	inconclusive: 32.6 µM [falling, single point]
O=C(COc1ccccc1Br)NC1CC1	inconclusive: 4.11 µM [activator, full curve, poor fit]
CC(=O)NC(CC(C)C)C(=O)NC(Cc1ccccc1)C(=O)CCl (stereo not drawn) (Ac-Leu-Phe-CH2Cl; configuration not given here)	inconclusive: 32.6 µM [falling, partial curve, poor fit]

Compound	Potency
Cc1ccc(SCC(=O)NC(=O)NC2CCCC2)c(C)c1	inconclusive: 25.9 µM [falling, single point]
COc1ccc(OC)c(CNc2ccc3c(c2)CCC3)c1	inconclusive: 4.61 µM [activator, full curve]
O=C(CCCn1c(SCC(=O)c2ccc(F)cc2)nc2ccccc2c1=O)NCc1ccccc1	inconclusive: 25.9 µM [falling, single point]
C=CCNC(=S)Nc1sc2c(c1C(=O)OCC)CC(C(C)C)OC2 (stereo not drawn)	inconclusive: 29.1 µM [falling, single point]
Oc1cc(CNC2CCCCC2)c(O)cc1CNC1CCCCC1	inactive
NC(=O)CC(NC(=O)c1cccc(Br)c1)c1ccc(N2CCCCCC2)c([N+](=O)[O-])c1 (stereo not drawn)	inconclusive: 29.1 µM [falling, single point]
CCCCOc1ccc(CSCCNC(=S)Nc2ccccc2)cc1	inactive
CC(C)Cc1csc(NC(=O)c2ccc(Cl)cc2)c1C(=O)O	inconclusive: 29.1 µM [falling, single point]
COc1ccc(N(C(=O)c2ccncc2)S(=O)(=O)c2ccc3c4c(cccc24)C(=O)N3C)cc1	inconclusive: 20.6 µM [falling, single point]
CCN(C(=O)Cn1c(=O)n(-c2ccccc2)c(=O)c2ccc(C(=O)NCc3ccc4c(c3)OCO4)cc21)c1cccc(C)c1	inconclusive: 4.11 µM [falling, partial curve, poor fit]
COc1ccc(Oc2nc(-c3ccccn3)nc3ccccc23)cc1	inactive
C[C@H](CO)N1C[C@H](C)[C@@H](CN(C)S(=O)(=O)c2ccccc2)Oc2c(NC(=O)Cc3ccccc3)cccc2C1=O	inconclusive: 20.6 µM [activator, single point]
CC1CCCCC1NS(=O)(=O)c1ccc2c(c1)CC(=O)N2C (stereo not drawn)	inconclusive: 6.51 µM [falling, partial curve, poor fit]
CCC(C)[C@H](NC(=O)OC(C)(C)C)C(=O)N/N=C/C1=Cc2ccccc2OC1 (stereo partly drawn)	inconclusive: 29.1 µM [falling, single point]
Cc1ccc(NC(=O)CN(C)C(C)C(=O)Nc2ccc(S(=O)(=O)N3CCCC3)cc2)cc1 (stereo not drawn)	inconclusive: 32.6 µM [falling, single point]
CCSc1nnc(C)c2ccccc12	inconclusive: 20.6 µM [falling, partial curve]
COc1ccc(NC(=O)CN2CCc3ccccc3C2)cc1	inconclusive: 18.4 µM [activator, partial curve]
COc1cccc(C(=O)Nc2c3c(nn2-c2ccc(Cl)cc2)CS(=O)(=O)C3)c1OC	inconclusive: 1.84 µM [activator, full curve, poor fit]
COc1ccc(-c2nc3c(c(SC)n2)Cc2c(CO)cnc(C)c2O3)cc1	inconclusive: 13 µM [activator, single point]
Cc1ccccc1NC(=O)c1c(C)oc2ccc(O)c(CN3CCOCC3)c12	inactive
COc1ccccc1NC(=O)c1ccccc1NS(=O)(=O)N1CCCC1	inconclusive: 4.61 µM [activator, single point]

Arranged by SMILES length (rising): three of the compounds above
Compound	Potency
Oc1cc(CNC2CCCCC2)c(O)cc1CNC1CCCCC1	inactive
Cc1ccc(SCC(=O)NC(=O)NC2CCCC2)c(C)c1	inconclusive: 25.9 µM [falling, single point]
COc1ccc(-c2nc3c(c(SC)n2)Cc2c(CO)cnc(C)c2O3)cc1	inconclusive: 13 µM [activator, single point]
